PMC7405549
Results are given in words; binding and its absence hold for the method and conditions named. Binding seen in cells or lysates may run through a third protein. Some entries that bind do so weakly or less than the wild type. Blank lines part the entries; values can stand above or below the binder they belong to.

How the values were obtained:
[1] = molecular target: T1, Acheron/Larp6 (mouse) (mouse (endogenous in C2C12)) (UniProt Q8BN59); test: co-IP; mouse C2C12 myoblast lysates (400-500 ug) with rabbit polyclonal anti-Acheron antibody (1:200) overnight at 4°C, protein A sepharose; 10 mM Tris pH 7.4, 1% triton, 0.5% NP-40, 150 mM NaCl; immunoblot for partners
T1 sequence: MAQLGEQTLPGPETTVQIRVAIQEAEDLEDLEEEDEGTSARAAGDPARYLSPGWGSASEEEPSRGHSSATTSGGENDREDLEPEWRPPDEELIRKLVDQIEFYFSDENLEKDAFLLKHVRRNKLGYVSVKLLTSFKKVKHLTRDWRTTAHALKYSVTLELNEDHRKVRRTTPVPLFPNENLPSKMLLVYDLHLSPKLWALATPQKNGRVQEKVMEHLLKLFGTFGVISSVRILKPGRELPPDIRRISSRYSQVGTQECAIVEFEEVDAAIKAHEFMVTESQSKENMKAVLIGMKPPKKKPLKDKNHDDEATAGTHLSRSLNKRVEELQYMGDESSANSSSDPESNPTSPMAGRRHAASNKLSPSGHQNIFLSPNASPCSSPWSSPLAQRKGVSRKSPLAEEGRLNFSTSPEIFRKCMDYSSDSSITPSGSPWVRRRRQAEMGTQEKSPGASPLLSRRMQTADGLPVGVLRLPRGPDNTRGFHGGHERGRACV

[2] = molecular target: T2, Acheron/LARP6 (human) (human (endogenous in HCC1935)) (UniProt Q9BRS8); test: co-IP; human HCC1935 breast cancer cells; data not shown
T2 sequence: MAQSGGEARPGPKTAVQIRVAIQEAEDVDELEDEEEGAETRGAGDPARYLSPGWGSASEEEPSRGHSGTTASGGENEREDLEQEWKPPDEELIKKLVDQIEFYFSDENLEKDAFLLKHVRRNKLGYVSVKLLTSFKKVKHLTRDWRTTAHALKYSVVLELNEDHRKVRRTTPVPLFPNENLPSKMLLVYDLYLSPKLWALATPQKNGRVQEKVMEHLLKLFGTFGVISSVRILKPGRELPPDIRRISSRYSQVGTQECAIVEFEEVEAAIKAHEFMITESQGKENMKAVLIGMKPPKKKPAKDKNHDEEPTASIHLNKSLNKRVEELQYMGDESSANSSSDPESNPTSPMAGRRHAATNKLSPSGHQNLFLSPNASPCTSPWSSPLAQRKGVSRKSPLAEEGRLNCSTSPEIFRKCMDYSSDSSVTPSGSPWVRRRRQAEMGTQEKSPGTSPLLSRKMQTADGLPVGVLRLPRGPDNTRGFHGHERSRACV

binding [1]: binds
B1: BAD (mouse) (protein, UniProt Q61337 1-204)
chain: MGTPKQPSLAPAHALGLRKSDPGIRSLGSDAGGRRWRPAAQSMFQIPEFEPSEQEDASATDRGLGPSLTEDQPGPYLAPGLLGSNIHQQGRAATNSHHGGAGAMETRSRHSSYPAGTEEDEGMEEELSPFRGRSRSAPPNLWAAQRYGRELRRMSDEFEGSFKGLPRPKSAGTATQMRQSAGWTRIIQSWWDRNLGKGGSTPSQ

binding [2]: binds
B2: BAD (human) (protein, UniProt Q92934 1-168)
chain: MFQIPEFEPSEQEDSSSAERGLGPSPAGDGPSGSGKHHRQAPGLLWDASHQQEQPTSSSHHGGAGAVEIRSRHSSYPAGTEDDEGMGEEPSPFRGRSRSAPPNLWAAQRYGRELRRMSDEFVDSFKKGLPRPKSAGTATQMRQSSSWTRVFQSWWDRNLGRGSSAPSQ

binding [1]: binds
B3: CASK (mouse) (protein, UniProt O70589 1-926)
chain: MADDDVLFEDVYELCEVIGKGPFSVVRRCINRETGQQFAVKIVDVAKFTSSPGLSTEDLKREASICHMLKHPHIVELLETYSSDGMLYMVFEFMDGADLCFEIVKRADAGFVYSEAVASHYMRQILEALRYCHDNNIIHRDVKPHCVLLASKENSAPVKLGGFGVAIQLGESGLVAGGRVGTPHFMAPEVVKREPYGKPVDVWGCGVILFILLSGCLPFYGTKERLFEGIIKGKYKMNPRQWSHISESAKDLVRRMLMLDPAERITVYEALNHPWLKERDRYAYKIHLPETVEQLRKFNARRKLKGAVLAAVSSHKFNSFYGDPPEELPDFSEDPTSSGLLAAERAVSQVLDSLEEIHALTDCSEKDLDFLHSVFQDQHLHTLLDLYDKINTKSSPQIRNPPSDAVQRAKEVLEEISCYPENNDAKELKRILTQPHFMALLQTHDVVAHEVYSDEALRVTPPPTSPYLNGDSPESANGDMDMENVTRVRLVQFQKNTDEPMGITLKMNELNHCIVARIMHGGMIHRQGTLHVGDEIREINGISVANQTVEQLQKMLREMRGSITFKIVPSYRTQSSSCERDSPSTSRQSPANGHSSTNNSVSDLPSTTQPKGRQIYVRAQFEYDPAKDDLIPCKEAGIRFRVGDIIQIISKDDHNWWQGKLENSKNGTAGLIPSPELQEWRVACIAMEKTKQEQQASCTWFGKKKKQYKDKYLAKHNAVFDQLDLVTYEEVVKLPAFKRKTLVLLGAHGVGRRHIKNTLITKHPDRFAYPIPHTTRPPKKDEENGKNYYFVSHDQMMQDISNNEYLEYGSHEDAMYGTKLETIRKIHEQGLIAILDVEPQALKVLRTAEFAPFVVFIAAPTITPGLNEDESLQRLQKESDVLQRTYAHYFDLTIINNEIDETIRHLEEAVELVCTAPQWVPVSWVY
